In test [1] the target is Slit-Roundabout (Robo) GTPase-activating protein 2 (srGAP2) (human (endogenous in fresh human TNBC tissue)) (UniProt O75044). Kind of test: co-IP; endogenous proteins in fresh human TNBC tissue; 0.5% NP-40 lysis buffer (50 mM Tris-HCl pH 8.0, 150 mM NaCl, 1 mM DTT), primary antibody 8 h then Protein-A beads 4 h at 4 °C.
The target of test [2] is PKCα (human (endogenous in fresh human TNBC tissue and TNBC cells)) (UniProt P17252). Nature of the test: co-IP; TNBC cells treated with 240 mOsm hypotonic medium for 300 s; endogenous PKCα immunoprecipitated, SDC4 detected by western blot; 0.5% NP-40 lysis buffer, Protein-A beads, 4 °C.
For test [3] the target is unchanged. Kind of test: co-IP; TNBC cells treated with isotonic or hypotonic (260~280 mOsm) medium for 300 s; endogenous PKCα immunoprecipitated, SDC4 detected by western blot; 0.5% NP-40 lysis buffer, Protein-A beads, 4 °C. In general terms: Immunoblotting shows a protein as a band on a membrane.

These are yes or no findings as the source states them, for the method shown. In cells and extracts the contact can be indirect. Some binding calls cover weakened binding; strength is not graded here.

In the case of “PKCα (from UniProt P17252 1-672) (enzyme)”, the binding result in test [1] is recorded as “binds”.

B1: Syndecan-4 (SDC4) (receptor, UniProt P31431 19-198)
chain: ESIRETEVIDPQDLLEGRYFSGALPDDEDVVGPGQESDDFELSGSGDLDDLEDSMIGPEVVHPLVPLDNHIPERAGSGSQVPTEPKKLEENEVIPKRISPVEESEDVSNKVSMSSTVQGSNIFERTEVLAALIVGGIVGILFAVFLILLLMYRMKKKDEGSYDLGKKPIYKKAPTNEFYA
Take B1: the binding entry in test [2] was “no binding (condition: 240 mOsm hypotonic medium)”; in test [3], “binds”.

Values taken from paper PMC9800732.
